Test systems include NBPF22P (human); NCBP1 (human); NCF4 (human); NCLN (human); NCOA4 (human); NDFIP1 (human); NDFIP2 (human); NDRG2 (human); NDRG4 (human); NDUFA1 (human); NDUFA13 (human); NDUFA3 (human); NDUFA4 (human); NDUFA5 (human); NDUFB1 (human); NDUFB10 (human); NDUFB11 (human); NDUFB2 (human); NDUFS6 (human).
Test in all cases: protein microarray (ProtoArray v5.0), streptavidin-Alexa Fluor 647
Holding throughout (settings): 3'-biotin; 20 mM Tris (pH 7.5), 5 mM MgCl2, 100 mM KCl, 0.1% Tween-20, A/T-rich and random oligonucleotide blockers; temperature not stated; high values mean tight binding

Assay [1] concerns NEDD8-activating enzyme E1 catalytic subunit (human).

Values joined by “and” are separate entries in the source; they are usually repeats but may differ in a detail not shown here. Identical values can stand only once. The list shows a part of the results.

In the case of “GGGAGGCTGAGGCAGG [G4-1 biotinylated (PQS2)]”, the binding signal with NBPF22P (human) is -0.36 z-score; with NCBP1 (human), -0.335 z-score; in the assay with NCF4 (human), -0.296 z-score; in the assay on NCLN (human), -0.33 z-score; with NCOA4 (human), -0.346 z-score and -0.314 z-score; with NDFIP1 (human), -0.234 z-score. Besides, the binding signal is -0.31 z-score with NDFIP2 (human); -0.352 z-score in the assay with NDRG2 (human); -0.365 z-score and -0.356 z-score with NDRG4 (human); -0.301 z-score with NDUFA1 (human); -0.293 z-score in the assay with NDUFA13 (human); -0.264 z-score in the assay with NDUFA3 (human). The binding signal was -0.353 z-score in the assay with NDUFA4 (human); -0.369 z-score in the assay on NDUFA5 (human); -0.298 z-score and -0.342 z-score in the assay on NDUFB1 (human); -0.293 z-score in the assay on NDUFB10 (human); -0.312 z-score with NDUFB11 (human); -0.323 z-score with NDUFB2 (human). Further, the binding signal was -0.324 z-score with NDUFS6 (human) and -0.36 z-score in assay [1].

These data come from publication PMC5996148.
